Reference: PMC10027040
No constants are given. Whether binding was seen depends on the method and setting. In cells and extracts the contact can be indirect. Some binding calls cover weakened binding; strength is not graded here. Where a sequence is shown, tags or fusion partners need not be part of it.

Sequences of proteins named here, by UniProt entry; tags and fusion partners are left off.
UniProt O00506: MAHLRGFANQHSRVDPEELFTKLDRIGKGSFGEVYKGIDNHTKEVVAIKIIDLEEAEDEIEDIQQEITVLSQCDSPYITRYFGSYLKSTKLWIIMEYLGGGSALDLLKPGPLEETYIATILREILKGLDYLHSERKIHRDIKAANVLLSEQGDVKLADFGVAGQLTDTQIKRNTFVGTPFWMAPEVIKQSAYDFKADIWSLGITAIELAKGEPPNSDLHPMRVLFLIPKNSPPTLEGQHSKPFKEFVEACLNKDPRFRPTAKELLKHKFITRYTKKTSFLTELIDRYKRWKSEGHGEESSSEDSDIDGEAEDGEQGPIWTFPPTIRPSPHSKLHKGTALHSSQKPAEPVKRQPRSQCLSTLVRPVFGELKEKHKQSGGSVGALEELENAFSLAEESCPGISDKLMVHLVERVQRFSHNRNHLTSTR

T1: MYC-tagged thousand and one kinase 1 (TAOK1) (human) (UniProt Q7L7X3)
T1 sequence: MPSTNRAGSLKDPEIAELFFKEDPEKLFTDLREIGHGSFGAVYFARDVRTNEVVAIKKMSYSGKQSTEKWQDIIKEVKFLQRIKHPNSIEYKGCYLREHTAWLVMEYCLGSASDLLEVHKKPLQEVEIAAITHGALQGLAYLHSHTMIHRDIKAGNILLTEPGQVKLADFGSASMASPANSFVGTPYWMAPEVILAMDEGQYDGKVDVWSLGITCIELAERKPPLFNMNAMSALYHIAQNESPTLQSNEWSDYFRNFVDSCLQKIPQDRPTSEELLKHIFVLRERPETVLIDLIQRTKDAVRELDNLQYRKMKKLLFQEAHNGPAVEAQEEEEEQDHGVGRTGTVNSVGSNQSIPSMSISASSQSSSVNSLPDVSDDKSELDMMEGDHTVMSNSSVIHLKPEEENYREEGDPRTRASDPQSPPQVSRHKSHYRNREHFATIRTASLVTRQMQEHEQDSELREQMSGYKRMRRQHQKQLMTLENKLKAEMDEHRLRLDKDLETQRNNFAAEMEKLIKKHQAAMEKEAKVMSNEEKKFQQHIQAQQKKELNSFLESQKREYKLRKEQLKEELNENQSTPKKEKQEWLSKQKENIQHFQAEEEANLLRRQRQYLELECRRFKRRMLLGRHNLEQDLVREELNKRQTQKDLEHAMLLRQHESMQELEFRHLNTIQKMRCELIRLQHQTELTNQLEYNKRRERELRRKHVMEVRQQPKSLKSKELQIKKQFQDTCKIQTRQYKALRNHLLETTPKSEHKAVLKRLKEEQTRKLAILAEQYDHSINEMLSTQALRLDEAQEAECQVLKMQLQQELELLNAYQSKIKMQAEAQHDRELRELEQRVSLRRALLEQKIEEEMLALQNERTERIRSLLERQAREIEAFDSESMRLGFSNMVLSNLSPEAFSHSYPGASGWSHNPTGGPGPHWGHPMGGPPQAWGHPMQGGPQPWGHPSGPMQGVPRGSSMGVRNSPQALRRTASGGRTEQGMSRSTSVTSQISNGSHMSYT

B1: MYC-tagged thousand and one kinase 1 (TAOK1) (enzyme, UniProt Q7L7X3 1-1001)
chain: MPSTNRAGSLKDPEIAELFFKEDPEKLFTDLREIGHGSFGAVYFARDVRTNEVVAIKKMSYSGKQSTEKWQDIIKEVKFLQRIKHPNSIEYKGCYLREHTAWLVMEYCLGSASDLLEVHKKPLQEVEIAAITHGALQGLAYLHSHTMIHRDIKAGNILLTEPGQVKLADFGSASMASPANSFVGTPYWMAPEVILAMDEGQYDGKVDVWSLGITCIELAERKPPLFNMNAMSALYHIAQNESPTLQSNEWSDYFRNFVDSCLQKIPQDRPTSEELLKHIFVLRERPETVLIDLIQRTKDAVRELDNLQYRKMKKLLFQEAHNGPAVEAQEEEEEQDHGVGRTGTVNSVGSNQSIPSMSISASSQSSSVNSLPDVSDDKSELDMMEGDHTVMSNSSVIHLKPEEENYREEGDPRTRASDPQSPPQVSRHKSHYRNREHFATIRTASLVTRQMQEHEQDSELREQMSGYKRMRRQHQKQLMTLENKLKAEMDEHRLRLDKDLETQRNNFAAEMEKLIKKHQAAMEKEAKVMSNEEKKFQQHIQAQQKKELNSFLESQKREYKLRKEQLKEELNENQSTPKKEKQEWLSKQKENIQHFQAEEEANLLRRQRQYLELECRRFKRRMLLGRHNLEQDLVREELNKRQTQKDLEHAMLLRQHESMQELEFRHLNTIQKMRCELIRLQHQTELTNQLEYNKRRERELRRKHVMEVRQQPKSLKSKELQIKKQFQDTCKIQTRQYKALRNHLLETTPKSEHKAVLKRLKEEQTRKLAILAEQYDHSINEMLSTQALRLDEAQEAECQVLKMQLQQELELLNAYQSKIKMQAEAQHDRELRELEQRVSLRRALLEQKIEEEMLALQNERTERIRSLLERQAREIEAFDSESMRLGFSNMVLSNLSPEAFSHSYPGASGWSHNPTGGPGPHWGHPMGGPPQAWGHPMQGGPQPWGHPSGPMQGVPRGSSMGVRNSPQALRRTASGGRTEQGMSRSTSVTSQISNGSHMSYT

Assays:
[1] = target: T1, MYC-tagged thousand and one kinase 1 (TAOK1) (human); test: co-IP; protein extracts of IHHs transfected with MYC-TAOK1 and FLAG-STK25 (or FLAG-Control plasmid); immunoprecipitated with anti-MYC magnetic beads; western blot for TAOK1 and STK25
FLAG-STK25 = FLAG-STK25 (UniProt O00506); test: co-IP; protein extracts of IHHs transfected with MYC-TAOK1 (or MYC-Control plasmid) and FLAG-STK25; immunoprecipitated with anti-FLAG M2 magnetic beads; western blot for TAOK1 and STK25

| Molecule | binding [1] | binding (FLAG-STK25) |
| --- | --- | --- |
| FLAG-STK25 (from UniProt O00506 1-426) (enzyme) | binds |  |
| B1 |  | binds |
